Results from PubChem BioAssay AID1347146 (National Center for Advancing Translational Sciences (NCATS), 2019).
What follows is the remainder of the data, with few or none of the hits. Results filed as inconclusive are left out. Active and inactive are the calls of the source. The call rests on the fitted dose curve; in most records, active means well fitted inhibition curve with a large enough effect; inconclusive means small, poorly fitted or top-dose-only effect; inactive means no such curve, though single readings can be large or run the other way.

Amino acid sequences for entries named in this document (tags omitted). A change or cut given only in a name is not applied to a line headed by its entry.
UniProt P40261: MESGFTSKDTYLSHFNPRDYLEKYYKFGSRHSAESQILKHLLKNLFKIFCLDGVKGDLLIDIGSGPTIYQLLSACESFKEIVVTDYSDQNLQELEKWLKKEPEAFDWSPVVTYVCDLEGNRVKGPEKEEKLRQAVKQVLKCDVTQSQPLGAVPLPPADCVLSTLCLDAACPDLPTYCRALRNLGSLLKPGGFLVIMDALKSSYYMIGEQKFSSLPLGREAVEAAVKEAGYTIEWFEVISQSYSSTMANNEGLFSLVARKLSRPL

Target: Nicotinamide N-methyltransferase (Homo sapiens) (UniProt P40261)
Experiment: qHTS Assay for Inhibitors of N-terminal methyltransferase 1 (NTMT1): NNMT MTaseGlo counterscreen assay;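 further: plate controls were DMSO without inhibitor for no effect and no-enzyme control for full effect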
Conditions: NNMT enzyme, MTase-Glo luminescence counterscreen; at 57.1 µM (top of the series)
Source text: Assay Submitter (PI): Rong Huang Ph.D, Purdue University, West Lafayette, IN 47907
The N-terminal methytransferase 1 is the first methyltransferase that methylates protein alpha-N-amines and plays an important role in regulating cell mitosis, chromatin interactions and DNA repair. It is observed to be over-expressed in various cancer patient tissues like malignant melanoma and colorectal cancer tissues. Knockdown of NTMT1 in cancer cells causes cell mitotic defects and enhances sensitivity to DNA damaging chemotherapeutics. […] To address this unmet need, a panel of assay is created and established to enable quantitative high-throughput screening (qHTS) for novel, potent, and selective small molecule NTMT1 inhibitors. […]
MTaseGlo Assay is a luminescence screen that measure the activity of methyltransferases based on the reaction product S-adenosyl homocysteine (SAH). […]
In brief, 3 µL of enzyme mixture (final concentrations of 125 nM and 100 µM for NNMT and SAM, respectively) into all wells of a 1,536-well solid-bottom white plate (Greiner Bio One, Monroe, NC). […] MTase-Glo Detection Solution(R) to allow for ADP to be converted to ATP, which was then detected with a luciferase reaction. […] Plates were then read using Luminescence optics on a ViewLux detector. […]

With `Oc1cc2c(c(Cl)c1O)CCNCC2c1ccccc1` (stereo unspecified) the activity change, negative = inhibition was inactive: -12.1%.
